# Assay results taken from the supplement of paper PMC12067093, “Discovery and optimisation of a covalent ligand for TRIM25 and its application to targeted protein ubiquitination” (Chemical Science, 2025).
# The chains behind the UniProt entries cited, without tags or fusion partners. Where a name states a change or a piece, a line headed by the entry shows the natural chain unless it says otherwise.
# UniProt Q8NI27: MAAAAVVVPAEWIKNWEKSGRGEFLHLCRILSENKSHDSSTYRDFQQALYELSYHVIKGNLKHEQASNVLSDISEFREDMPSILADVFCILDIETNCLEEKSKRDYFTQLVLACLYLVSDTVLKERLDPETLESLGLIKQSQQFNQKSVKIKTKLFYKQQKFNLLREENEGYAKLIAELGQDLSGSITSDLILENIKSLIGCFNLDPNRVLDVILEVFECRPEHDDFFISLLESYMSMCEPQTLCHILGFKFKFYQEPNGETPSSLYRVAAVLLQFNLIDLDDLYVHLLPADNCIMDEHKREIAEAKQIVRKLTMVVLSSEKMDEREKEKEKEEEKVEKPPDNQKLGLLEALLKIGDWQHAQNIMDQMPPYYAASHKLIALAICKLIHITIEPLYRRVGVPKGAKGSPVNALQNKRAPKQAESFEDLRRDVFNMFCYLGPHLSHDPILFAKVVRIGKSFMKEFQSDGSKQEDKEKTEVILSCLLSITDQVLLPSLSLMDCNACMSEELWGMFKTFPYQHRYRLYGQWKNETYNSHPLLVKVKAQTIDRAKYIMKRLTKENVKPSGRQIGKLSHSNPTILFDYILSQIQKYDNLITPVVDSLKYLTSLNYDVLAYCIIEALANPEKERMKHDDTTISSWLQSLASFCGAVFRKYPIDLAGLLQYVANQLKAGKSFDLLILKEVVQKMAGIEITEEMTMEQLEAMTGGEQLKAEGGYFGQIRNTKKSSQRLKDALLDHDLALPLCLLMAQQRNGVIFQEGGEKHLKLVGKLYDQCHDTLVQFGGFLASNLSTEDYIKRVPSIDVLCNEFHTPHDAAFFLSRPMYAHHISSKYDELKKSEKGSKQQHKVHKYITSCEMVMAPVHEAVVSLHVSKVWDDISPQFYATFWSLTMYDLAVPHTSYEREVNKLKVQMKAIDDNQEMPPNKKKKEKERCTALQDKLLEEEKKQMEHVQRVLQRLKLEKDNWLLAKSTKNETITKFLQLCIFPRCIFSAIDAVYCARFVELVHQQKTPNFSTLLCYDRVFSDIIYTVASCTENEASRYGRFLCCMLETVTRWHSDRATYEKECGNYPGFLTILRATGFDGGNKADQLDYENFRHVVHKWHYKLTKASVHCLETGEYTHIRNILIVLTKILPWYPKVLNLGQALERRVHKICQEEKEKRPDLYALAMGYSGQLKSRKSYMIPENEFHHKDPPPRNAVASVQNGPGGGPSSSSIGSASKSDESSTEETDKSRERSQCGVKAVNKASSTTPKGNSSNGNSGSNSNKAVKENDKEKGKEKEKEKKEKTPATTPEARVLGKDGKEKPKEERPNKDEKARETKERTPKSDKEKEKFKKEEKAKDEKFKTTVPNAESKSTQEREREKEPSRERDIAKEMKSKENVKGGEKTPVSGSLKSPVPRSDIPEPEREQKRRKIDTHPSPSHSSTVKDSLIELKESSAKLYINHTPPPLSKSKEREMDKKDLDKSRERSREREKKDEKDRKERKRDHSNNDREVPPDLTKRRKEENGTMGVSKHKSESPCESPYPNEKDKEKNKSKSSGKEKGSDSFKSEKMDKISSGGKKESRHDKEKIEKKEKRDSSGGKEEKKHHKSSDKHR
# UniProt Q12800: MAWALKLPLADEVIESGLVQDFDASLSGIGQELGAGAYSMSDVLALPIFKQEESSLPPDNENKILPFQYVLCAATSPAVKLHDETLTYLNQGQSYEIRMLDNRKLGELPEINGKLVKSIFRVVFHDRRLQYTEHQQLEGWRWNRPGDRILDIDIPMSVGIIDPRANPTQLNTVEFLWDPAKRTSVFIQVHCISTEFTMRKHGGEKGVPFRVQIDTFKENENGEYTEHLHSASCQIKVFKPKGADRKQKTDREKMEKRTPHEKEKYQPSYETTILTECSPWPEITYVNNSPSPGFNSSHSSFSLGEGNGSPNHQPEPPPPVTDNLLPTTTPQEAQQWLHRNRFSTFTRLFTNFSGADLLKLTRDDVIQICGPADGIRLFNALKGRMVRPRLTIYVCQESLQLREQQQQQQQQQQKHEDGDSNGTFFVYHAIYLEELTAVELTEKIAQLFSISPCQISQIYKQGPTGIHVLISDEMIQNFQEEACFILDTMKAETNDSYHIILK
# UniProt Q6YHU6: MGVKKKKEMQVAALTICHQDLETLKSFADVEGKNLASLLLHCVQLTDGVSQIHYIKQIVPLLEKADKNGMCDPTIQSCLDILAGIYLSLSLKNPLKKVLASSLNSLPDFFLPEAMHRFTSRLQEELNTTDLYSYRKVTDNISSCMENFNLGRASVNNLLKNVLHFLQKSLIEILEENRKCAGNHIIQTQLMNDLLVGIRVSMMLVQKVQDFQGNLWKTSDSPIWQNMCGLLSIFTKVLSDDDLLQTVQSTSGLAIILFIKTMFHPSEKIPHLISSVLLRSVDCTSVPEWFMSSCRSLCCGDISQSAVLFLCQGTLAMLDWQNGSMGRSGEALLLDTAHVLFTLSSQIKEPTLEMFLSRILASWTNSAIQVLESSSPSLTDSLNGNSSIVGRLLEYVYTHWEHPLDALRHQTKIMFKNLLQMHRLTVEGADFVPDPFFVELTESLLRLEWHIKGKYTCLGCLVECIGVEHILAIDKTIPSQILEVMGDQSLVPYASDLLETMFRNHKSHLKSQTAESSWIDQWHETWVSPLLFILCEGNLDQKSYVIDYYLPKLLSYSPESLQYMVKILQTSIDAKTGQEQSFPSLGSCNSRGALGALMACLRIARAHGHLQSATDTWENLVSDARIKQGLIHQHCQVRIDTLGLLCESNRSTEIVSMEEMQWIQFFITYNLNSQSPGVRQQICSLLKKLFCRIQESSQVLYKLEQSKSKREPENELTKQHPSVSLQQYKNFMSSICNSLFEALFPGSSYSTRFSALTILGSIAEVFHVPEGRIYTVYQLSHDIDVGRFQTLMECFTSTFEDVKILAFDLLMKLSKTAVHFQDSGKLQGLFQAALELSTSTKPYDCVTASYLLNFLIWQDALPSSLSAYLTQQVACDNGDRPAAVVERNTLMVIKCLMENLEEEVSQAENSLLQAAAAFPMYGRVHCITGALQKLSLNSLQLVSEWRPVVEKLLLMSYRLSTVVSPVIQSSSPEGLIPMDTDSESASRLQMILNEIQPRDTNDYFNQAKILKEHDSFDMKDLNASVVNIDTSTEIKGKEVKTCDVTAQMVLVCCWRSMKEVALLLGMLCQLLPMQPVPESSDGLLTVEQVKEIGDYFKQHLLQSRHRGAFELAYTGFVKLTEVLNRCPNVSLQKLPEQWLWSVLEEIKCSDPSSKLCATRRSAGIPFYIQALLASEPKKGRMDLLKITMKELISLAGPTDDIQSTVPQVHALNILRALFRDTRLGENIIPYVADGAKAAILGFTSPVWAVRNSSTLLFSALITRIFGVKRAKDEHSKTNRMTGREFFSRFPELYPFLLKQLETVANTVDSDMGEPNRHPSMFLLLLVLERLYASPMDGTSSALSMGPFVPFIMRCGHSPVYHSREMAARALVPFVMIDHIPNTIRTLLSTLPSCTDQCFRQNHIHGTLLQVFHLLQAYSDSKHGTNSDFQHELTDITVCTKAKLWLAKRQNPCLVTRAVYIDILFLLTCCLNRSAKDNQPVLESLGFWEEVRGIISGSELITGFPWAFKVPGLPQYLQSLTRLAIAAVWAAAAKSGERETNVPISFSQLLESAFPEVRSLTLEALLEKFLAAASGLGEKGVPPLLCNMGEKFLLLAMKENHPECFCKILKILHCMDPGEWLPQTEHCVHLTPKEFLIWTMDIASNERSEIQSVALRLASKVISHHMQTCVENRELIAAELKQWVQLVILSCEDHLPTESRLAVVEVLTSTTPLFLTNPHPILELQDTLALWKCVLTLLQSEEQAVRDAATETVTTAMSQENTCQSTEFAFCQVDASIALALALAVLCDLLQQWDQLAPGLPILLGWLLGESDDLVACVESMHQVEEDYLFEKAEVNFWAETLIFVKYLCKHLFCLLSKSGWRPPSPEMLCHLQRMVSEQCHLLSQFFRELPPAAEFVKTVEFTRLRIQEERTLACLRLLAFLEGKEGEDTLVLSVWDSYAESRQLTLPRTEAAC
# UniProt P29401: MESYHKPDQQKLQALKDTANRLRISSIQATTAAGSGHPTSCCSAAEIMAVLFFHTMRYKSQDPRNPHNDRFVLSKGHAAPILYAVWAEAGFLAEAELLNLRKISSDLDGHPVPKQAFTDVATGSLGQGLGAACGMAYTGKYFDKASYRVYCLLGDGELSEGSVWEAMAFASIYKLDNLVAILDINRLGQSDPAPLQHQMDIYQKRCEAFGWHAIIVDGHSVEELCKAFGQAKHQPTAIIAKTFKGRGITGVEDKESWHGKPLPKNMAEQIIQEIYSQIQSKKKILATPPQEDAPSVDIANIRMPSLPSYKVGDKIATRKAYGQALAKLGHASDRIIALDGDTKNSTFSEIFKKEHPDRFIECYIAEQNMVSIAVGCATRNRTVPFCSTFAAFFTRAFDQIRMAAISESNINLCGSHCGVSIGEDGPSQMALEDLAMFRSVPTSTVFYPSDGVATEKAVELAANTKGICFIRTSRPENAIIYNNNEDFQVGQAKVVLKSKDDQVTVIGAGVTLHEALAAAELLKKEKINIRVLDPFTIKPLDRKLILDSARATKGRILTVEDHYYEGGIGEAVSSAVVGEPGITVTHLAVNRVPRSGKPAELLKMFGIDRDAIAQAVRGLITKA
# UniProt P36897: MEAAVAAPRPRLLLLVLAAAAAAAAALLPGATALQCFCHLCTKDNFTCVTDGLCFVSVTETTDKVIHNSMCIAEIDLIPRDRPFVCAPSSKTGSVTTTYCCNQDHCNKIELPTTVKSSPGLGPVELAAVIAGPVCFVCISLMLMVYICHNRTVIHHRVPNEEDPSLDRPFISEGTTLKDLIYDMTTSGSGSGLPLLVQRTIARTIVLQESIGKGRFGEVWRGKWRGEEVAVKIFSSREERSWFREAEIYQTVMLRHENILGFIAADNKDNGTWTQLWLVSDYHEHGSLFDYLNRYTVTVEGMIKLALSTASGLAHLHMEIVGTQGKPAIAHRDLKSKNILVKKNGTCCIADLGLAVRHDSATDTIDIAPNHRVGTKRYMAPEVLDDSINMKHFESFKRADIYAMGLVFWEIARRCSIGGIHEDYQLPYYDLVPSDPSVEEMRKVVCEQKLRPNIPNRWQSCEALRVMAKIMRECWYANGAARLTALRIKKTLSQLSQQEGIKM
# UniProt P17987, whole entry, looked up: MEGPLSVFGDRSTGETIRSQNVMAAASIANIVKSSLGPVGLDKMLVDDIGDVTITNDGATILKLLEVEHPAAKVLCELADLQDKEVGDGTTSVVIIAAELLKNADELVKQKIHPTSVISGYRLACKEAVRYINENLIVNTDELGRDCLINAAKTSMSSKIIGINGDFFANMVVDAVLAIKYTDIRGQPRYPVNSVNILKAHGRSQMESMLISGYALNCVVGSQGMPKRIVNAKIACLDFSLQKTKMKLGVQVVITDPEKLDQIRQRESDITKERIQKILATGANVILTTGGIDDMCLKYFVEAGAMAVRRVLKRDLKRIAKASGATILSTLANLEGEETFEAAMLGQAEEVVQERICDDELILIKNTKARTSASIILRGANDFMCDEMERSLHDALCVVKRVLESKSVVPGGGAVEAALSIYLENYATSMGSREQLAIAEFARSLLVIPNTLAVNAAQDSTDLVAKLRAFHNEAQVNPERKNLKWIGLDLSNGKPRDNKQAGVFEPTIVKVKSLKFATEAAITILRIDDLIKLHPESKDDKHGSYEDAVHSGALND
# UniProt Q9Y4R8, whole entry, looked up: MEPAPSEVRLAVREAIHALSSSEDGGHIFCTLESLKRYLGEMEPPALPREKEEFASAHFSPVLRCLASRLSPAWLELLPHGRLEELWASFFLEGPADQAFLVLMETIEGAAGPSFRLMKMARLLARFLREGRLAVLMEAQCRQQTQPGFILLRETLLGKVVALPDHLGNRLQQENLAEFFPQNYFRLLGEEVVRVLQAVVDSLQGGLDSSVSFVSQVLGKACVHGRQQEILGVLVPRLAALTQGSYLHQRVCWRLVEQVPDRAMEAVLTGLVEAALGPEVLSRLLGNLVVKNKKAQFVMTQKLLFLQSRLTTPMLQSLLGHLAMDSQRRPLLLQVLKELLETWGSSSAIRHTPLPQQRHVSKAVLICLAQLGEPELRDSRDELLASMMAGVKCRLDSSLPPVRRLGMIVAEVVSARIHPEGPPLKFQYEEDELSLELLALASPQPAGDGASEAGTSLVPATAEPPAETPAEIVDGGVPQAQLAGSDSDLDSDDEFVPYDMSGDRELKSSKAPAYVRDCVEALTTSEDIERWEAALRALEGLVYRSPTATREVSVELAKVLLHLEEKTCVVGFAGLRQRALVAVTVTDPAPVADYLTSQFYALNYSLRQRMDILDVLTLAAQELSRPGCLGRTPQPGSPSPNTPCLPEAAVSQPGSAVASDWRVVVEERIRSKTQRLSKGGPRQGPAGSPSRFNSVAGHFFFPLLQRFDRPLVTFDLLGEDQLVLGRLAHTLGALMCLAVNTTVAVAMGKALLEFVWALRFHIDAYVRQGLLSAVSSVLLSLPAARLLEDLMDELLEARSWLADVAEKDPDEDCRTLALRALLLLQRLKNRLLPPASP
# The list shows a part of the results.
# Compound: CC1Cc2ccccc2N1C(=O)C1CCCN(C1)C(=O)CCl (mixture of isomers) [TRIM25 ligand 11 (diastereomer mixture)]
# Test: probe-labelled cysteine peptide fold change vs DMSO (competition) (log2 fold change); higher = less target engagement (more negative = stronger competition)
# Conditions: THP-1, incubation time: 4 h
# 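Note: competitive chemoproteomic profiling in live THP-1 cells with an iodoacetamide desthiobiotin (IA-DTB) probe, comparing probe-labelled peptide intensities in compound-treated cells against DMSO-treated controls.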
Target,probe-labelled cysteine peptide fold change (10 µM),probe-labelled cysteine peptide fold change (50 µM)
TIA1_P31483_49_MIMDTAGNDPYCFVEFHEHR (UniProt P31483),-0.0148,-0.032
THAP12_O43422_230_RFETTAVNTLFCSK (UniProt O43422),0.0728,-0.135
THOC2_Q8NI27_804_RVPSIDVLCNEFHTPHDAAFFLSR (UniProt Q8NI27),0.151,0.0437
TFCP2_Q12800_369_DDVIQICGPADGIR (UniProt Q12800),0.0474,0.0953
THOP1_P52888_231_CHVPETR (UniProt P52888),0.0498,-0.0166
TCIRG1_Q13488_241_ITDCFHCHVFPFLQQEEAR (UniProt Q13488),0.0711,0.0192
TDRD7_Q8NHU6_284_ELYKEDLNQGILQQFEHWPHICTVEK (UniProt Q8NHU6),-0.365,-0.43
TIMM29_Q9BSF4_182_DCDINDDEFLHLPAHLR (UniProt Q9BSF4),0.0233,0.0365
THADA_Q6YHU6_1605_ENHPECFCK (UniProt Q6YHU6),0.213,0.216
TES_Q9UGI8_361+364_NHAVVCQGCHNAIDPEVQR (UniProt Q9UGI8),-0.0698,0.0345
TEP1_Q99973_692_TVLVYLTDANADRLCPK (UniProt Q99973),-0.00077,-0.297
TKT_P29401_206+225_RCEAFGWHAIIVDGHSVEELCK (UniProt P29401),-0.0929,-0.0796
THUMPD3_Q9BV44_239_HCFTSNEAAR (UniProt Q9BV44),-0.0112,0.0964
TIMM29_Q9BSF4_46_DYAEACR (UniProt Q9BSF4),-0.14,0.0204
TEPSIN_Q96N21_273_ACGLLNCEAVLQLLTCHLR (UniProt Q96N21),-0.114,0.299
TICAM1_Q8IUC6_37_TPRPGCQGQDLLHAMVLLK (UniProt Q8IUC6),-0.121,-0.031
TGFB1I1_O43294_228+231_GLCGSCNKPIAGQVVTALGR (UniProt O43294),-0.0173,0.00898
TCIRG1_Q13488_317_CLIAEAWCSVR (UniProt Q13488),0.0352,0.0368
TGFBR1_P36897_71_VIHNSMCIAEIDLIPR (UniProt P36897),0.0712,-0.0559
TEX10_Q9NXF1_454_DCSWIEMIR (UniProt Q9NXF1),0.0904,0.212
THOP1_P52888_434_YGHAACFGLQPGCLR (UniProt P52888),0.0959,0.124
THBS1_P07996_718_KDNCPNLPNSGQEDYDK (UniProt P07996),0.375,0.118
THOC1_Q96FV9_156_SQNTVFCGR (UniProt Q96FV9),-0.227,0.0635
THOC5_Q13769_507_QFASLEHGIVPVTSDCQYLFPAK (UniProt Q13769),0.0632,-0.308
TGFBR1_P36897_101_TGSVTTTYCCNQDHCNK (UniProt P36897),-0.0331,0.044
TEX264_Q9Y6I9_165_KLCAYPR (UniProt Q9Y6I9),-0.137,0.0043
TKT_P29401_386_TVPFCSTFAAFFTR (UniProt P29401),0.00648,0.0101

# 5 entries from above in a different format.
Target	probe-labelled cysteine peptide fold change (10 µM)	probe-labelled cysteine peptide fold change (50 µM)
TFCP2_Q12800_369_DDVIQICGPADGIR (UniProt Q12800)	0.0474	0.0953
THOP1_P52888_231_CHVPETR (UniProt P52888)	0.0498	-0.0166
TCIRG1_Q13488_241_ITDCFHCHVFPFLQQEEAR (UniProt Q13488)	0.0711	0.0192
TDRD7_Q8NHU6_284_ELYKEDLNQGILQQFEHWPHICTVEK (UniProt Q8NHU6)	-0.365	-0.43
TIMM29_Q9BSF4_182_DCDINDDEFLHLPAHLR (UniProt Q9BSF4)	0.0233	0.0365

# (list continues)

Target,probe-labelled cysteine peptide fold change (10 µM),probe-labelled cysteine peptide fold change (50 µM)
THOC2_Q8NI27_1045_FLCCMLETVTR (UniProt Q8NI27),0.00332,0.301
TEPSIN_Q96N21_295_GTSECTQLR (UniProt Q96N21),0.0525,0.179
THOC6_Q86W42_173_GHTDYIHCLALR (UniProt Q86W42),0.0588,0.136
THADA_Q6YHU6_464_YTCLGCLVECIGVEHILAIDK (UniProt Q6YHU6),0.442,0.382
THYN1_Q9P016_118_LGEEAFFYHSNCK (UniProt Q9P016),-0.123,-0.085
TCP1_P17987_397_SLHDALCVVK (UniProt P17987),0.0457,-0.0909
THOP1_P52888_175_LSLLCIDFNK (UniProt P52888),0.0227,0.00268
THOC6_Q86W42_148_ENSLILAGGDCQLHTMDLETGTFTR (UniProt Q86W42),0.117,-0.0106
THOC6_Q86W42_279_CVNQWQLSGELK (UniProt Q86W42),0.0536,0.0906
TGFBI_Q15582_49_QHGPNVCAVQK (UniProt Q15582),0.331,0.203
TDRD7_Q8NHU6_77_SGEITCYAMACTETAR (UniProt Q8NHU6),-0.359,-0.347
TENT2_Q6PIY7_374_IYPESFSPAIQLHLVHQAPCNVPPYLSK (UniProt Q6PIY7),0.113,-0.0699
TCP1_P17987_296_ILATGANVILTTGGIDDMCLK (UniProt P17987),-0.0684,-0.0533
TGFBRAP1_Q8WUH2_700_ALHILVHELQDFAAAEDYCLWCSEGRDPPHR (UniProt Q8WUH2),0.0726,0.233
THOC6_Q86W42_214_HEECSRPHNGR (UniProt Q86W42),0.174,0.17
TLN1_Q9Y490_1023_ASVPTIQDQASAMQLSQCAK (UniProt Q9Y490),0.00686,0.129
THOC3_Q96J01_65_VHSVAWSCDGRR (UniProt Q96J01),-0.0874,-0.159
TDG_Q13569_162_CLFMSGLSEVQLNHMDDHTLPGK (UniProt Q13569),-0.0694,-0.0672
TEP1_Q99973_171_GLDLSTCPIALK (UniProt Q99973),0.0301,0.12
TKFC_Q3LXA3_155_RGLCGTVLIHK (UniProt Q3LXA3),-0.0729,0.00548
THAP12_O43422_68_HFETSMICR (UniProt O43422),0.113,0.109
TKFC_Q3LXA3_404_AAGDGDCGTTHSR (UniProt Q3LXA3),0.435,-0.00367
TEX30_Q5JUR7_166_LKEPVLFVSGSADEMCEK (UniProt Q5JUR7),-0.0477,-0.18
TK2_O00142_54_SVICVEGNIASGK (UniProt O00142),-0.14,-0.122
TEP1_Q99973_2000_ECSLQSLWLLSR (UniProt Q99973),-0.047,0.0164
TES_Q9UGI8_29_CEGFELHFWR (UniProt Q9UGI8),0.0302,-0.00802
TELO2_Q9Y4R8_222_ACVHGR (UniProt Q9Y4R8),-0.0174,0.0343

Target,probe-labelled cysteine peptide fold change (10 µM),probe-labelled cysteine peptide fold change (50 µM)
TDRD7_Q8NHU6_333_GCPTVMAGDFK (UniProt Q8NHU6),-0.0317,-0.308
TECR_Q9NZ01_18_LCFLDK (UniProt Q9NZ01),0.0168,-0.146
TKT_P29401_362+376_EHPDRFIECYIAEQNMVSIAVGCATR (UniProt P29401),0.0379,0.0881
THOC5_Q13769_613_ELCGPWPSHQLLTNQLQR (UniProt Q13769),0.00273,0.15
THOC6_Q86W42_314_AQVPGSSPGLLSLSLNQQPAAPECK (UniProt Q86W42),-0.0144,0.0557
THOC1_Q96FV9_251_NPVQCYEK (UniProt Q96FV9),0.154,0.121
TERF2IP_Q9NYB0_54_LSTLILHGGGTVCR (UniProt Q9NYB0),-0.171,-0.121
TELO2_Q9Y4R8_30_EAIHALSSSEDGGHIFCTLESLKR (UniProt Q9Y4R8),0.0505,-0.231
TFCP2_Q12800_395_LTIYVCQESLQLR (UniProt Q12800),0.0944,0.0656
THOP1_P52888_246_KVEEAFNCR (UniProt P52888),-0.0308,-0.0583
TDRKH_Q9Y2W6_109_VLLISGFPVQVCK (UniProt Q9Y2W6),-0.0187,-0.354
TEPSIN_Q96N21_302_ALCAIASLGSSDLLPQEHILLR (UniProt Q96N21),-0.000361,-0.113
TEPSIN_Q96N21_493_LVGAGAAAGESCPDAPR (UniProt Q96N21),0.112,-0.193
TFRC_P02786_363_TDSTCR (UniProt P02786),-0.0248,-0.0878
TKFC_Q3LXA3_13+24_KLVNSVAGCADDALAGLVACNPNLQLLQGHR (UniProt Q3LXA3),-0.15,-0.227
THY1_P04216_28_VTSLTACLVDQSLR (UniProt P04216),0.135,0.106
THBS4_P35443_925_LGVFCFSQENIIWSNLK (UniProt P35443),0.547,0.212
THUMPD1_Q9NXG2_248_AVCCLSVVK (UniProt Q9NXG2),0.176,0.235
TGFB1I1_O43294_431_FHPDHFTCTFCLRPLTK (UniProt O43294),0.0316,0.0378
TKT_P29401_362_EHPDRFIECYIAEQNMVSIAVGCATR (UniProt P29401),0.0018,0.0657
TEP1_Q99973_21_CLAMLPDLQPLEK (UniProt Q99973),0.0705,-0.354
THBS1_P07996_718_DNCPNLPNSGQEDYDK (UniProt P07996),0.529,0.325
TK1_P04183_153_LTAVCMECFR (UniProt P04183),0.0482,0.348
TLN1_Q9Y490_1363_ECDNALRELETVR (UniProt Q9Y490),-0.419,-0.378
TES_Q9UGI8_164_CHELSPR (UniProt Q9UGI8),-0.056,-0.146
TELO2_Q9Y4R8_568_TCVVGFAGLR (UniProt Q9Y4R8),0.0025,0.0967
